# In PubChem BioAssay AID504467 (National Center for Advancing Translational Sciences (NCATS), 2011):
# Hit rate of the full screen: of about 330,000 compounds, about 7,700 (2.3%) were called active. Inconclusive means that the source gave no clear call. Such entries were picked first, then a sample of the others. The call rests on the fitted dose curve; in most records, active means well fitted inhibition curve with a large enough effect; inconclusive means small, poorly fitted or top-dose-only effect, or effect the other way; inactive means flat fitted curve, though single readings scatter. Potencies of inconclusive entries are doubtful fits and often do not repeat.
# Test: qHTS screen for small molecules that inhibit ELG1-dependent DNA repair in human embryonic kidney (HEK293T) cells expressing luciferase-tagged ELG1; further: nearly all actives have a fitted effect of over 55% in size
# Settings: HEK293T ELG1-luciferase reporter, luminescence, 16 h, DNA damage induced by 5-fluorouridine; activity change, negative = inhibition: at 46.1 µM (top of the series)
# Summary of the method: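 Quantitative HTS, concentration-response format. 2,000 cells/well co-treated with 5-fluorouridine and compound, 16 hr in 5% CO2 at 37 °C; ONE-Glo luminescence read after 30 min.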
# On the % scale 0 is the no-effect control and ±100 the full control effect; potency means the concentration at half of the fitted maximal effect.
SMILES,Potency,"activity change, negative = inhibition"
Cc1cccc(OCC(=O)NC(=S)Nc2ccc(S(=O)(=O)NC3CCCCC3)cc2)c1,"inconclusive: 20.6 µM [inhibitor, partial curve, poor fit]",
CNC(=S)NNC(=O)COc1ccccc1C,,inactive: -3.36%
Cc1cccc(OCCOC(=O)C2CCN(S(=O)(=O)c3cccs3)CC2)c1,"inconclusive: 18.4 µM [activator, partial curve, poor fit]",
CCN(CC)S(=O)(=O)c1cc(NC(=O)c2n[nH]c(=O)c3ccccc23)ccc1C,"inconclusive: 20.6 µM [inhibitor, single point]",
O=C(NC(=S)Nc1ncccn1)c1ccccc1Br,"inconclusive: 23.1 µM [activator, partial curve]",
CCOc1cccc(C(=O)Nc2cccc(C(=O)NC(C)(C)C)c2)c1,"inconclusive: 23.1 µM [inhibitor, single point]",
CCn1cc(C(=O)NCC2CCCO2)c(=O)c2cc(S(=O)(=O)N(C)C3CCCCC3)ccc21 (centres undefined),active: 16.4 µM,
CCN1C[C@@H]2[C@@H]3C(=O)N(C)C(=O)[C@@H]3[C@](CC)(C(=O)OC)N2C1=NC,"inconclusive: 20.6 µM [activator, partial curve, poor fit]",
Cc1ccc(NC(=O)COC(=O)C2=NN(c3ccccc3)C(=O)CC2)c(Br)c1,,inactive: 24.7%
CN(C)c1ccc(C(CNC(=O)Cc2cccc3ccccc23)N(C)C)cc1 (centres undefined),"inconclusive: 16.4 µM [activator, single point]",
Cn1c(Cc2ccccc2)nnc1SCC(=O)c1ccc(Br)s1,,inactive: 13.8%
CCCCn1c(N)c(N(C)C(=O)c2cccc(-n3cnnn3)c2)c(=O)[nH]c1=O,,inactive: -25%
CCc1ccc(NC(=O)c2ccc(F)c(S(=O)(=O)NCC3COc4ccccc4O3)c2)cc1 (centres undefined),"inconclusive: 18.4 µM [inhibitor, single point]",
O=C(CN1CCCCC1)N1CCCc2ccccc21,"inconclusive: 23.1 µM [activator, partial curve, poor fit]",
CCCCN(CC)C(=O)c1cc2c(=O)[nH]c3ccc(C)cc3c2s1,"inconclusive: 29.1 µM [inhibitor, single point]",
COc1ccc2nc(NC(=O)c3cnccn3)sc2c1,"inconclusive: 2.59 µM [activator, full curve]",
Cc1ccc(Nc2n[nH]c(C)c2[N+](=O)[O-])cc1,"inconclusive: 14.6 µM [activator, partial curve]",
COc1cccc(-n2c(SCC(=O)Nc3nccs3)nnc2-c2ccoc2C)c1,"inconclusive: 29.1 µM [inhibitor, single point]",
COc1ccc(C(C)=O)cc1CN1CCCCC1,,inactive: -0.651%
COc1cccc(C2C(=O)N(C3CCCCC3)CC(=O)N2Cc2ccc(F)cc2)c1 (centres undefined),,inactive: -0.989%
CCc1ccc(N(C(=O)c2snc(C(N)=O)c2N)C(C(=O)NC2CCCC2)c2ccncc2)cc1 (centres undefined),"inconclusive: 9.2 µM [activator, partial curve, poor fit]",
O=c1[nH]c(S)c(/C=C2\C=Nc3ccccc32)s1,,inactive: 0.0752%

SMILES,Potency,"activity change, negative = inhibition"
COc1ccc(OCC(=O)N(C)CC2COc3ccccc3O2)cc1 (centres undefined),,inactive: 14.2%
CCN(Cc1ccccc1)S(=O)(=O)c1ccc(C(=O)Nc2nnc(C)o2)cc1,,inactive: -12.4%
Cc1ccc(Nc2nc3ccccc3c(=O)[nH]2)cc1C,"inconclusive: 6.51 µM [activator, full curve]",
COc1ccc(S(=O)(=O)N2CCc3ccccc32)cc1[N+](=O)[O-],active: 6.51 µM,
CC(=O)c1ccc(COC(=O)c2cc3ccccc3oc2=O)cc1,"inconclusive: 29.1 µM [activator, single point]",
O=C(CSc1nnnn1-c1ccc(O)cc1)Nc1cccc(S(=O)(=O)N2CCCC2)c1,"inconclusive: 23.1 µM [inhibitor, single point]",
CCOc1ccc(CC(=O)NNC(=O)NC2CCCCC2)cc1,,inactive: 9.36%
CCCCC(=O)Nc1nc2c(s1)COc1ccccc1-2,"inconclusive: 25.9 µM [inhibitor, single point]",
O=C(NCc1ccccc1)C(c1c(F)cccc1Cl)N(C(=O)c1csnn1)C1CC1 (centres undefined),,inactive: -1.68%
Nc1nc(C(F)(F)F)c(Br)c(=O)n1N,,inactive: -12%
Cn1c(=O)c2c(nc(NC3CCCCC3)n2Cc2ccccc2)n(C)c1=O,"inconclusive: 29.1 µM [inhibitor, single point]",
CCCCn1cnc2c1c(=O)n(CC(=O)c1cc(C)n(C)c1C)c(=O)n2CC(C)C,"inconclusive: 29.1 µM [inhibitor, single point]",
O=C1CC2C(CC(OC(=O)c3ccc(-c4ccccc4)cc3)C2CO)O1 (centres undefined),"inconclusive: 1.64 µM [activator, full curve, poor fit]",
CCn1c2ccccc2c2cc(NC(=O)COC(=O)C3CCC(=O)N3)ccc21 (centres undefined),"inconclusive: 29.1 µM [activator, single point]",
Cc1cc(C)cc(NC(=S)N2CCC(N(C)CC3CCCO3)CC2)c1 (centres undefined),"inconclusive: 0.0082 µM [activator, full curve, poor fit]",
Cc1cccc(N2CCN(C(=O)CSc3nc4ccccc4nc3N3CC(C)OC(C)C3)CC2)c1C (centres undefined),,inactive: -2.52%
COc1cc(C#Cc2c(-c3cncn3C)n(C)c3ccc(-c4ccc(OC)nc4)cc23)cc(OC)c1,active: 7.3 µM,
Cc1cc(-c2n[nH]c(=S)n2/N=C/c2ccccc2[N+](=O)[O-])n[nH]1,"inconclusive: 18.4 µM [activator, partial curve, poor fit]",
CCC(=O)c1cc(F)c(N2CCN(C(=O)Cc3ccccc3)CC2)cc1C,"inconclusive: 32.6 µM [inhibitor, partial curve, poor fit]",
COc1ccccc1C(=O)NC(=S)Nc1ccc(S(=O)(=O)N2CCN(C)CC2)cc1,"inconclusive: 29.1 µM [inhibitor, single point]",
c1cncc(-c2nc3cc4ccccc4cc3[nH]2)c1,"inconclusive: 1.84 µM [activator, partial curve, poor fit]",
COCCNC(=O)c1ccc2c(=O)n(Cc3ccco3)c(SCC(=O)NC3CCCC3)nc2c1,"inconclusive: 18.4 µM [inhibitor, partial curve]",

# Some of the entries so far, with tabs.
SMILES	Potency	activity change, negative = inhibition
COc1ccc2nc(NC(=O)c3cnccn3)sc2c1	inconclusive: 2.59 µM [activator, full curve]	
Cc1ccc(Nc2n[nH]c(C)c2[N+](=O)[O-])cc1	inconclusive: 14.6 µM [activator, partial curve]	
COc1cccc(-n2c(SCC(=O)Nc3nccs3)nnc2-c2ccoc2C)c1	inconclusive: 29.1 µM [inhibitor, single point]	
